Measurements reported in PubChem BioAssay AID720710 (VTT Finland, 2013)
In all, the deposit lists about 1,380 reagents; this is an unselected part. 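One array per condition without replicates; hydroxyurea arrays received 2 mM for 16 h plus 3 h recovery.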 The numbers tell different reagents against one gene apart. Not all columns of the deposit are shown. No sequences are given here.

- Screen: 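siRNAs sensitising CCNE1-overexpressing U-2 OS cells to replication stress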 (primary screen)
- System: human U-2 OS bone cancer cells, parental and a cyclin E (CCNE1) overexpressing line
- Reagents: single siRNA against human genes, 1 µM siRNA in the printed spot mix
- Timing: 67 h
- Conditions: half the arrays: hydroxyurea 2 mM for 16 h, then 3 h recovery; other arrays untreated
- Measurement: 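EdU click signal imaged per DAPI-stained nucleus at 67 h; each spot divided by its subgrid median, then z-scored relative to non-targeting control spots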
- Direction: EdU z-score, cyclin E line, hydroxyurea: higher = more DNA synthesis than non-targeting controls

How did the screen score RPA4 #1?
EdU z-score, cyclin E line, hydroxyurea: -1.45

For RPA4 #2, how do the results read?
EdU z-score, cyclin E line, hydroxyurea: 1.02

With SGK1 #1, what does the deposit list?
EdU z-score, cyclin E line, hydroxyurea: -1.3

With SGK1 #2, what does the deposit list?
EdU z-score, cyclin E line, hydroxyurea: -0.14

How did the screen score ID3 #1?
EdU z-score, cyclin E line, hydroxyurea: -0.0233

For ID3 #2, how do the results read?
EdU z-score, cyclin E line, hydroxyurea: 0.463

What did the screen give for RAD54L #1?
EdU z-score, cyclin E line, hydroxyurea: -1.89

What did the screen give for RAD54L #2?
EdU z-score, cyclin E line, hydroxyurea: -0.141

With H4C6 #1, how do the results read?
EdU z-score, cyclin E line, hydroxyurea: -0.131

Which result is listed for H4C6 #2?
EdU z-score, cyclin E line, hydroxyurea: 1.3

With EXO1 #1, how do the results read?
EdU z-score, cyclin E line, hydroxyurea: -1.88

What is on record for EXO1 #2?
EdU z-score, cyclin E line, hydroxyurea: -0.522

With NEIL2 #1, what was measured?
EdU z-score, cyclin E line, hydroxyurea: -1.11

For NEIL2 #2, what does the deposit list?
EdU z-score, cyclin E line, hydroxyurea: 1.25

For GINS1 #1, what does the deposit list?
EdU z-score, cyclin E line, hydroxyurea: 1.2

With GINS1 #2, what was measured?
EdU z-score, cyclin E line, hydroxyurea: 2.81

With H4C2 #1, what was measured?
EdU z-score, cyclin E line, hydroxyurea: 0.027

How did the screen score H4C2 #2?
EdU z-score, cyclin E line, hydroxyurea: 1.26

What did the screen give for NFIC #1?
EdU z-score, cyclin E line, hydroxyurea: -3.64

How did the screen score NFIC #2?
EdU z-score, cyclin E line, hydroxyurea: 0.294

For CHEK1 #1, what does the deposit list?
EdU z-score, cyclin E line, hydroxyurea: -1.19

What did the screen give for CHEK1 #2?
EdU z-score, cyclin E line, hydroxyurea: 0.676

With AIFM1 #1, what does the deposit list?
EdU z-score, cyclin E line, hydroxyurea: -1.2

How did the screen score AIFM1 #2?
EdU z-score, cyclin E line, hydroxyurea: -0.207

Single entries from the entries so far.
For “EdU z-score, cyclin E line, hydroxyurea”, AIFM1 #1 reads -1.2
For “EdU z-score, cyclin E line, hydroxyurea”, RPA4 #1 reads -1.45
Value for NEIL2 #2 in “EdU z-score, cyclin E line, hydroxyurea”: 1.25
NEIL2 #1, EdU z-score, cyclin E line, hydroxyurea: -1.11
Under “EdU z-score, cyclin E line, hydroxyurea”, ID3 #1 reads -0.0233

Next records follow:
For H1-3 #1, what was measured?
EdU z-score, cyclin E line, hydroxyurea: 0.23

How did the screen score H1-3 #2?
EdU z-score, cyclin E line, hydroxyurea: 1.76

With LOC730324 #1, what was measured?
EdU z-score, cyclin E line, hydroxyurea: -0.516

How did the screen score LOC730324 #2?
EdU z-score, cyclin E line, hydroxyurea: 1.31

What did the screen give for RAD54B #1?
EdU z-score, cyclin E line, hydroxyurea: -1.31

For RAD54B #2, what was measured?
EdU z-score, cyclin E line, hydroxyurea: -0.377

What did the screen give for RAD52 #1?
EdU z-score, cyclin E line, hydroxyurea: -0.969

What did the screen give for RAD52 #2?
EdU z-score, cyclin E line, hydroxyurea: 0.378

Which result is listed for IP6K3 #1?
EdU z-score, cyclin E line, hydroxyurea: 0.476

Which result is listed for IP6K3 #2?
EdU z-score, cyclin E line, hydroxyurea: 1.37

For H2AX #1, what does the deposit list?
EdU z-score, cyclin E line, hydroxyurea: 0.654

For H2AX #2, how do the results read?
EdU z-score, cyclin E line, hydroxyurea: 2.04

What is on record for RECQL5 #1?
EdU z-score, cyclin E line, hydroxyurea: -0.342

How did the screen score RECQL5 #2?
EdU z-score, cyclin E line, hydroxyurea: -0.0773

For H4C12 #1, what was measured?
EdU z-score, cyclin E line, hydroxyurea: -0.239

For H4C12 #2, how do the results read?
EdU z-score, cyclin E line, hydroxyurea: -0.0643
